Test results published in publication PMC8093233.
Results are given in words; binding and its absence hold for the method and conditions named. Some entries that bind do so weakly or less than the wild type.

Biological target: T1, interferon regulatory factor 3 (IRF3) (mouse (endogenous in L929)), P70671
T1 chain: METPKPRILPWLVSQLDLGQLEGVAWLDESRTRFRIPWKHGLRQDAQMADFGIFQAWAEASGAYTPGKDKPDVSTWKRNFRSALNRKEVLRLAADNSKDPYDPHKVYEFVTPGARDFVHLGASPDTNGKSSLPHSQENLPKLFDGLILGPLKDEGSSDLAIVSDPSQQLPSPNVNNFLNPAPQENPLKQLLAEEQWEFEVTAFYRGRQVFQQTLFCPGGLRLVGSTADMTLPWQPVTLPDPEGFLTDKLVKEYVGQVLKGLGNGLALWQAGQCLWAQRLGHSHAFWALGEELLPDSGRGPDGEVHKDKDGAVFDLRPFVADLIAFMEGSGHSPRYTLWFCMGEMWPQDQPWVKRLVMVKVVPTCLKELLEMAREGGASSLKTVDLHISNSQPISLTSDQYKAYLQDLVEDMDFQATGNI
Experiment: native gel or EMSA; IRF3 dimerization assay: L929 cell extracts in native lysis buffer (50 mM Tris-HCl pH 8.0, 150 mM NaCl, 1% NP40), native PAGE without SDS, 0.2% deoxycholate in the cathode buffer, immunoblot for IRF3; cells transfected with miR-23a/b mimics or inhibitors and stimulated with HT-DNA (5 ug/ml) for the indicated times
Conditions: remark: other sources report otherwise

B1: interferon regulatory factor 3 (IRF3), P70671 1-419 (protein)
chain: METPKPRILPWLVSQLDLGQLEGVAWLDESRTRFRIPWKHGLRQDAQMADFGIFQAWAEASGAYTPGKDKPDVSTWKRNFRSALNRKEVLRLAADNSKDPYDPHKVYEFVTPGARDFVHLGASPDTNGKSSLPHSQENLPKLFDGLILGPLKDEGSSDLAIVSDPSQQLPSPNVNNFLNPAPQENPLKQLLAEEQWEFEVTAFYRGRQVFQQTLFCPGGLRLVGSTADMTLPWQPVTLPDPEGFLTDKLVKEYVGQVLKGLGNGLALWQAGQCLWAQRLGHSHAFWALGEELLPDSGRGPDGEVHKDKDGAVFDLRPFVADLIAFMEGSGHSPRYTLWFCMGEMWPQDQPWVKRLVMVKVVPTCLKELLEMAREGGASSLKTVDLHISNSQPISLTSDQYKAYLQDLVEDMDFQATGNI
binding: binds
